PubChem BioAssay AID602196, INSERM – 2012
Here is an unselected part of about 23,000 reagents tested. In the full data, 455 (2%) were called active. 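Active includes both protection and sensitisation; some change values fall well beyond the stated -50 to +50 range.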 Entries without a mark were called inactive. Not all columns of the deposit are shown. Not stated in the record: the amount of reagent.

- Assay: 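Modifiers of cisplatin sensitivity in A549 cells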
- Cells: human A549 lung cancer cells
- Reagents: siRNA pair against human genes
- Timing: 48 h transfection before cisplatin; time from cisplatin to read-out not stated
- Treatment: cisplatin at a dose killing half of control-siRNA cells; exact dose and duration not given
- Measured: 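Shift in cisplatin death relative to control siRNA, from -50 (all cells die) to +50 (no cells die); siRNAs harmful on their own scored 0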
- Direction: two-siRNA summed score (-2 to +2): higher = both siRNAs protect from cisplatin killing; -2 means both sensitise
- Call rule: 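siRNAs harmful alone (LDH or WST-1) get 0; others get +1 for less and -1 for more cisplatin killing; genes are active when the two siRNAs give the same sign, summing to ±2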
- Calls: active = both siRNAs shift cisplatin killing the same way; inactive = no consistent shift, or siRNA harmful alone

{"gene":"LOC442534","two-siRNA summed score (-2 to +2)":0}
{"gene":"TMEM120A","two-siRNA summed score (-2 to +2)":0}
{"gene":"ARID3C","two-siRNA summed score (-2 to +2)":0}
{"gene":"RAD51B","two-siRNA summed score (-2 to +2)":0}
{"gene":"ACKR2","two-siRNA summed score (-2 to +2)":0}
{"gene":"SLC35B1","two-siRNA summed score (-2 to +2)":0}
{"gene":"PADI4","two-siRNA summed score (-2 to +2)":0}
{"gene":"PIGH","two-siRNA summed score (-2 to +2)":0}
{"gene":"PLXNB1","two-siRNA summed score (-2 to +2)":-1}
{"gene":"LOC440557","two-siRNA summed score (-2 to +2)":0}
{"gene":"CDK15","two-siRNA summed score (-2 to +2)":"2 (active)"}
{"gene":"KIAA1542","two-siRNA summed score (-2 to +2)":-1}
{"gene":"MIEF1","two-siRNA summed score (-2 to +2)":0}
{"gene":"MCRS1","two-siRNA summed score (-2 to +2)":0}
{"gene":"KRT40","two-siRNA summed score (-2 to +2)":0}
{"gene":"ADORA2A","two-siRNA summed score (-2 to +2)":0}
{"gene":"PGCKA1","two-siRNA summed score (-2 to +2)":-1}
{"gene":"FLJ13105","two-siRNA summed score (-2 to +2)":0}

Quoted from the listing (5 entries):
{"gene":"MCRS1","two-siRNA summed score (-2 to +2)":0}
{"gene":"KRT40","two-siRNA summed score (-2 to +2)":0}
{"gene":"ADORA2A","two-siRNA summed score (-2 to +2)":0}
{"gene":"PGCKA1","two-siRNA summed score (-2 to +2)":-1}
{"gene":"FLJ13105","two-siRNA summed score (-2 to +2)":0}

The results go on.
{"gene":"ADAMTS12","two-siRNA summed score (-2 to +2)":0}
{"gene":"LOC441614","two-siRNA summed score (-2 to +2)":0}
{"gene":"NOTUM","two-siRNA summed score (-2 to +2)":0}
{"gene":"TBC1D9B","two-siRNA summed score (-2 to +2)":0}
{"gene":"C9orf152","two-siRNA summed score (-2 to +2)":0}
{"gene":"DAO","two-siRNA summed score (-2 to +2)":1}
{"gene":"LOC442044","two-siRNA summed score (-2 to +2)":1}
{"gene":"LOC344709","two-siRNA summed score (-2 to +2)":1}
{"gene":"LOC441457","two-siRNA summed score (-2 to +2)":0}
{"gene":"MRPL40","two-siRNA summed score (-2 to +2)":0}
{"gene":"ECD","two-siRNA summed score (-2 to +2)":0}
{"gene":"TMEM181","two-siRNA summed score (-2 to +2)":0}
{"gene":"CFAP57","two-siRNA summed score (-2 to +2)":0}
